Among all 340,000 compounds or so, about 6,200 (1.8%) were called active. The shares of active, inactive and inconclusive entries below differ from those in the screen. The call rests on the fitted dose curve; in most records, active means well fitted activation curve with a large enough effect; inconclusive means small, poorly fitted or top-dose-only effect; inactive means no such curve, though single readings can be large or run the other way. A potency beside an inconclusive call is a rough fit, not a confirmed value.
Assay: A quantitative high throughput screen for small molecules that induce DNA re-replication in SW480 colon adenocarcinoma cells. Further: nearly all actives have a fitted effect of over 55% in size.
Conditions: Hoechst DNA content imaging, 48 h; series mostly up to 46.1 µM
How it was run: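 First, 250 cells per well were seeded. Next, compound or vehicle (23 nL) was pinned in, plates sat 48 hr at 37 C. Finally Hoechst was added for 40 min before fluorescence scanning.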
For `CCCCc1nc2cc(C(=O)N3CCCCC3CCNC(C)=O)ccc2o1` (stereo not drawn), the Potency was inconclusive: 29.1 µM [activator, single point]. In the case of `Cc1cccc(Oc2c(C=O)c3ccccc3n2C)c1`, the Potency is reported as inconclusive: 20.6 µM [activator, single point]. For `CC(=O)Nc1ccc(NC(=O)c2ccc(-n3c(C)ccc3C)cc2)cc1`, the Potency was inconclusive: 23.1 µM [activator, single point]. For `CCOC(=O)C1Nc2ccccc2C2c3ccccc3CC12` (stereo not drawn), the Potency was inconclusive: 0.116 µM [activator, full curve, poor fit]. For `Cc1ccc(OCc2cc(C(=O)NCC3COCCO3)no2)cc1C` (stereo not drawn), the Potency was inconclusive: 23.1 µM [activator, partial curve, poor fit]. With `O=C1OCC2=C1C(c1ccc(Cl)cc1)c1cc3c(cc1O2)OCO3` (stereo not drawn) the Potency was inconclusive: 29.1 µM [activator, single point]. For `Cc1cccc(OCCSc2nc(N)cc(N)n2)c1`, the Potency was active: 16.4 µM. With `Cc1ccc(NC2(C#N)CCCC2)cc1` the Potency was inconclusive: 18.4 µM [activator, single point]. For `N#C/C(=C\c1ccc(O)c(Br)c1)C(=O)NCc1ccccc1`, the Potency was active: 8.2 µM. With `O=C(Nc1cccnc1)c1ccco1` the Potency was “inactive”. For `Cc1cccc2c1c(N=NC(N)=S)c(O)n2C1OC(CO)C(O)C(O)C1O` (stereo not drawn), the Potency was “inactive”. With `CC(C)[C@H](NC(=O)[C@@H]1CSC2c3ccccc3C(=O)N21)C(=O)N1CCCCC1` (stereo partly drawn) the Potency was inconclusive: 29.1 µM [activator, single point]. With `CCS(=O)(=O)c1ccc(O)c(NC(=O)c2ccc(S(=O)(=O)N3CCCCCC3)cc2)c1` the Potency was “inactive”. For `Cc1ccc(-c2nc3cnccn3c2Nc2c(C)cccc2C)o1`, the Potency was inconclusive: 23.1 µM [activator, single point]. For `Cc1c(Cc2ccccc2)sc(NC(=O)/C=C/c2cccc3ccccc23)c1C(N)=O`, the Potency was inconclusive: 25.9 µM [activator, single point]. With `CCn1c2ccccc2c2nnc(SCc3ccc(C(=O)OC)o3)nc21` the Potency was “inactive”. With `CC(=O)Nc1ccc(-c2nc3cc(Cl)ccc3o2)cc1` the Potency was inconclusive: 16.4 µM [activator, partial curve, poor fit]. For `CCOC(=O)N1CCN(S(=O)(=O)c2ccc(C(=O)Nc3sc4c(c3C#N)CCC4)cc2)CC1`, the Potency was “inactive”. In the case of `Nc1nc(Br)c2c(F)cccc2c1-c1ccc(Cl)cc1`, the Potency is reported as active: 20.6 µM. For `Cc1cc(-c2nc3cc(F)ccc3s2)ccc1N`, the Potency was active: 18.4 µM. In the case of `Cc1ccc(Oc2nc3ccccn3c(=O)c2/C=C(\C#N)C(=O)NC2CCS(=O)(=O)C2)cc1` (stereo not drawn), the Potency is reported as inconclusive: 0.82 µM [activator, full curve, poor fit]. In the case of `COCc1cc(C)nc2sc(C(=O)OC(C)C)c(N)c12`, the Potency is reported as inconclusive: 32.6 µM [activator, partial curve, poor fit]. For `CCOc1cc(/C=N/Nc2cc(C)nc(-n3nc(C)cc3C)n2)ccc1O`, the Potency was inconclusive: 4.61 µM [activator, full curve, poor fit]. For `CCOc1ccc(NCc2nc3ccccc3n2CCOc2ccccc2)cc1`, the Potency was inconclusive: 18.4 µM [activator, partial curve, poor fit]. With `Cc1cccc(OCCCCc2c(C)n[nH]c2C)c1` the Potency was inconclusive: 29.1 µM [activator, partial curve, poor fit]. In the case of `Cc1ccccc1C(=O)NC(=S)N(C)C1CCCCC1`, the Potency is reported as inconclusive: 25.9 µM [activator, single point]. In the case of `O=C(Nc1ccccc1N1CCN(C(=O)c2ccc(Cl)cc2)CC1)c1cccnc1`, the Potency is reported as inconclusive: 5.17 µM [activator, full curve, poor fit]. In the case of `COC(=O)[C@H](Cc1ccccc1)NC(=O)O[C@@H]1C(=O)c2cc(OC)ccc2O[C@H]1c1ccc(OC)c(Br)c1`, the Potency is reported as inconclusive: 16.4 µM [activator, single point]. For `COc1cccc(-c2ccc3c(N)c(C(=O)NC4CC4)sc3n2)c1`, the Potency was inconclusive: 20.6 µM [activator, partial curve, poor fit]. In the case of `Cc1ccnc(NC(=O)CCCc2ccccc2)c1`, the Potency is reported as inconclusive: 3.26 µM [activator, single point]. With `CCOc1ccc(Cl)cc1S(=O)(=O)N1CCN(c2ccc(F)cc2)CC1` the Potency was inconclusive: 32.6 µM [activator, partial curve, poor fit]. With `N#Cc1c(-c2ccccc2)cc(-c2ccc(O)cc2)nc1N` the Potency was inconclusive: 20.6 µM [activator, single point]. With `O=C1CCC(=O)N1OCCOc1ccccc1` the Potency was inconclusive: 35.5 µM [activator, partial curve, poor fit]. In the case of `O=C(CCCCn1c(=O)c2ccccc2n(Cc2ccc(F)cc2)c1=O)NCc1ccco1`, the Potency is reported as inconclusive: 29.1 µM [activator, single point]. With `COc1ccc(CNCC(=O)Nc2ccccc2-n2cccc2)cc1` the Potency was active: 20.6 µM. For `FC(F)(F)c1cc(CO[C@@H]2CCCN[C@@H]2c2ccccc2)cc(C(F)(F)F)c1`, the Potency was inconclusive: 16.4 µM [activator, single point]. With `COc1cc(OC)c(C(=O)C=Cc2ccc(OC)c(OC)c2)c(OC)c1` the Potency was active: 18.4 µM. With `Cc1cc(C)nc(Sc2ncnc(N)c2[N+](=O)[O-])n1` the Potency was inconclusive: 6.51 µM [activator, full curve, poor fit]. In the case of `O=C(NC1CCC(O)CC1)C1CCN(S(=O)(=O)c2c(Cl)cccc2Cl)CC1` (stereo not drawn), the Potency is reported as inconclusive: 2.91 µM [activator, single point]. In the case of `Cc1cccc2cc(CN(CCN(C)C)C(=S)Nc3ccccc3)c(=O)[nH]c12`, the Potency is reported as inconclusive: 29.1 µM [activator, partial curve, poor fit]. In the case of `COc1cc(/C=C2/C(=O)ON=C2C)ccc1OCc1ccccc1F`, the Potency is reported as inconclusive: 18.4 µM [activator, single point]. With `COc1cccc(Cn2c(=O)c3ccccc3n3nc(C)cc23)c1` the Potency was “inactive”. In the case of `CCOc1ccc(N(CC(=O)NCc2ccc(Cl)cc2)S(=O)(=O)c2ccccc2)cc1`, the Potency is reported as “inactive”.

— PubChem BioAssay AID624297 (National Center for Advancing Translational Sciences (NCATS), 2012)
Potency means the concentration at half of the fitted maximal effect.
